In the supplement of paper PMC10849652:
This is one part of the list.

Protein sequences, listed by entry. Tags and fused reporters are not part of them. Lines headed by an entry give the natural chain unless they say otherwise; changes in a name come on top.
UniProt Q15653: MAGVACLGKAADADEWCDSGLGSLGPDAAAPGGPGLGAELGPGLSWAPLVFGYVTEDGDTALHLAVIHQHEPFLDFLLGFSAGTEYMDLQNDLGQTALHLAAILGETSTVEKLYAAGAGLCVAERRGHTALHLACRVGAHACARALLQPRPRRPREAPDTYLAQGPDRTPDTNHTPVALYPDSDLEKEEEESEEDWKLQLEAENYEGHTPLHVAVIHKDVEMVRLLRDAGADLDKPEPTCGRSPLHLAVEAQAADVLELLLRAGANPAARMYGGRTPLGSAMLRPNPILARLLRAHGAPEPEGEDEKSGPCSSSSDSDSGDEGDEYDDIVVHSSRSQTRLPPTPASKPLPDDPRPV
UniProt Q9NQR4: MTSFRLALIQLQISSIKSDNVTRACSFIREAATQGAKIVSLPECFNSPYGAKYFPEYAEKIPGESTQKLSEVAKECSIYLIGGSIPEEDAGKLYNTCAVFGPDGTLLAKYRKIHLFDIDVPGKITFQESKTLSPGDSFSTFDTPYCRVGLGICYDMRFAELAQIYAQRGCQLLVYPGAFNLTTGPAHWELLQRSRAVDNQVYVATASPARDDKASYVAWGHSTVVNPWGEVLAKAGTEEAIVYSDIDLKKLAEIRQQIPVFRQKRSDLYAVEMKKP
UniProt Q9NX02: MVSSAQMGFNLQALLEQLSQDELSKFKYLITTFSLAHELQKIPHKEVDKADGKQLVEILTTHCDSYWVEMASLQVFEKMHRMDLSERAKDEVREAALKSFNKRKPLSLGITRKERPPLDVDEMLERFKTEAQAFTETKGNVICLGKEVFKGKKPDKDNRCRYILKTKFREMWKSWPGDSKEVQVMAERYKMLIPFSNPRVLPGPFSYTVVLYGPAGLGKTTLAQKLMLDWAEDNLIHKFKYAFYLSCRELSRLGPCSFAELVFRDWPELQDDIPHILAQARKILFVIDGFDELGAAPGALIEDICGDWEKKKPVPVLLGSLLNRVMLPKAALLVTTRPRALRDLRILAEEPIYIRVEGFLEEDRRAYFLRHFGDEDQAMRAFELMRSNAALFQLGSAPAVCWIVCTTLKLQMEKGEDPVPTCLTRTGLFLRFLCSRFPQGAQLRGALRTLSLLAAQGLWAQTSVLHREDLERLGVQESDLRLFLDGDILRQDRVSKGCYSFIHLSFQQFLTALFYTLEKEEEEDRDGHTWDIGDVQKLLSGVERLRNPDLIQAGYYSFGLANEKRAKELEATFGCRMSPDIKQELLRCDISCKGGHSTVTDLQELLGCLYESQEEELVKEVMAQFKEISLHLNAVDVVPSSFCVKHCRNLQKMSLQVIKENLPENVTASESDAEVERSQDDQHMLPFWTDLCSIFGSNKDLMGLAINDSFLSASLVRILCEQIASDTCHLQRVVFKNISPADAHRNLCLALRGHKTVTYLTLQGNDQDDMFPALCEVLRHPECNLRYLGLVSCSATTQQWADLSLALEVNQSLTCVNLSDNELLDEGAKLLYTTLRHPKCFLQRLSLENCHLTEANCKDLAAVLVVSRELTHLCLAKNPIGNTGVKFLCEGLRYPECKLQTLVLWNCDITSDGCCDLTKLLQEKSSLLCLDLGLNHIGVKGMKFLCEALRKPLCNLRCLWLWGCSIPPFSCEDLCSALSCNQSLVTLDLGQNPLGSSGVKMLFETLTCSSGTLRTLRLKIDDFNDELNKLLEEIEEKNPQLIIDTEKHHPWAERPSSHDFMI
UniProt Q9UHY1: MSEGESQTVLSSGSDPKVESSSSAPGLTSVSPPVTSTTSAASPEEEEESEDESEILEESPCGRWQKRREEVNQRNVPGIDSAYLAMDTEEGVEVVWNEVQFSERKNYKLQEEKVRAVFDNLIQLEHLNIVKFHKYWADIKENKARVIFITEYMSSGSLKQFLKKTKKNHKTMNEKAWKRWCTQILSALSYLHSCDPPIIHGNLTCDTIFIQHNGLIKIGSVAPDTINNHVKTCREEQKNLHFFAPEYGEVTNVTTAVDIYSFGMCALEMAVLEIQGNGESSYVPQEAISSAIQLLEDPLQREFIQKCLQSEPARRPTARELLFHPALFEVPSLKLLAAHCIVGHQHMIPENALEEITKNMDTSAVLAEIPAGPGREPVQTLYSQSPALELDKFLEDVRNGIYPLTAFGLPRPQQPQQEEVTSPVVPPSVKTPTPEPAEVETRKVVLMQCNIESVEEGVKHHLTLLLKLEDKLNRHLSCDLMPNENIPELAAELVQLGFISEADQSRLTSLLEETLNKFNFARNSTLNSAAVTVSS
UniProt Q9BXD5: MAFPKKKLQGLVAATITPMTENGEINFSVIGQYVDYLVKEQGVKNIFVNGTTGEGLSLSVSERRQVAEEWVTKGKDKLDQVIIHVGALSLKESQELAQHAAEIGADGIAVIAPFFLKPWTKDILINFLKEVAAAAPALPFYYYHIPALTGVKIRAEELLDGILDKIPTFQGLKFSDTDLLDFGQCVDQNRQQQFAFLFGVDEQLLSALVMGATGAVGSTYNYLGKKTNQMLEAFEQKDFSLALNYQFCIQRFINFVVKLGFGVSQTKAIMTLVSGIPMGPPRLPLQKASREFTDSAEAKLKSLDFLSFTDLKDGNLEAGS
UniProt P22392, whole entry, looked up: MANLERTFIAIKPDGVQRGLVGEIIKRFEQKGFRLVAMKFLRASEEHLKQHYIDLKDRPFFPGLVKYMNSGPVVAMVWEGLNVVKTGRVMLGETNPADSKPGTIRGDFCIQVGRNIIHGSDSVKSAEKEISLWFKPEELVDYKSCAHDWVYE
UniProt Q96IY1: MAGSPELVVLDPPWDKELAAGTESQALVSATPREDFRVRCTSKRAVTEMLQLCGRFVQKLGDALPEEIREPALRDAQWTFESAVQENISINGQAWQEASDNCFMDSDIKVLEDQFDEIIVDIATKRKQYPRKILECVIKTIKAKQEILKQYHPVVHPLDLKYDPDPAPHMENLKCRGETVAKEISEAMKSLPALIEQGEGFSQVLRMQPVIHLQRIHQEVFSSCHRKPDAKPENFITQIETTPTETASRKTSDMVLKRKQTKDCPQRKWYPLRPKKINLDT
UniProt P61916: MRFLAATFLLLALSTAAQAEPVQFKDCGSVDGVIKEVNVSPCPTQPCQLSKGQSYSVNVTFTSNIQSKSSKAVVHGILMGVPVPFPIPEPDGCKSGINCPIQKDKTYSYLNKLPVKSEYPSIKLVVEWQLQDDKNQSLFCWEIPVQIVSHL
UniProt Q9BYT8, whole entry, looked up: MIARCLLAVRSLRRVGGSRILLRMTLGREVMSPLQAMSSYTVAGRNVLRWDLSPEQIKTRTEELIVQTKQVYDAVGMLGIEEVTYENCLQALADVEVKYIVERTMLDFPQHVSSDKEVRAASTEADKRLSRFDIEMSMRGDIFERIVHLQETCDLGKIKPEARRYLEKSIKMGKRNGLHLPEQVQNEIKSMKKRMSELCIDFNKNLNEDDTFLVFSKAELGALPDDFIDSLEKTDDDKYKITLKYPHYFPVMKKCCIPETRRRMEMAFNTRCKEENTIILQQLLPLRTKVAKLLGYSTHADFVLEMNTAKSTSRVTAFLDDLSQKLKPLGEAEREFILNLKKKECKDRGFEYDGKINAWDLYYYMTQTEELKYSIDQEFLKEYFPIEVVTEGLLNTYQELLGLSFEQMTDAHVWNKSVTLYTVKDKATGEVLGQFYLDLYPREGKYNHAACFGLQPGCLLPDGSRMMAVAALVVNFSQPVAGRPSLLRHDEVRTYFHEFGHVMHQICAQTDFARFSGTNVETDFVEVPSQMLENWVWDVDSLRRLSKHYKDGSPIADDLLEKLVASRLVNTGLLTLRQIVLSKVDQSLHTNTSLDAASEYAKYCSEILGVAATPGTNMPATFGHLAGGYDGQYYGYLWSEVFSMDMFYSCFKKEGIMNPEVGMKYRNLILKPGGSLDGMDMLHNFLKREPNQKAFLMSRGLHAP
UniProt Q9GZT8: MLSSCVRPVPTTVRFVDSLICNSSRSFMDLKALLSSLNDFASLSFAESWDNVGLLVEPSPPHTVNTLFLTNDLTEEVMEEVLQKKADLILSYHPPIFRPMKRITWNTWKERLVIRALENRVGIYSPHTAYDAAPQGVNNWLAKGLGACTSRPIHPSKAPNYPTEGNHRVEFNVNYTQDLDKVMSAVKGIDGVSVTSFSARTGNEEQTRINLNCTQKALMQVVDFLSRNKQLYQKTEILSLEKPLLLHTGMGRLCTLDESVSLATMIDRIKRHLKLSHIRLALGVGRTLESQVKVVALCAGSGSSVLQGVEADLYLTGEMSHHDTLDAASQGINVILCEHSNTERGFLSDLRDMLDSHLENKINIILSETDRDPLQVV
UniProt O00221: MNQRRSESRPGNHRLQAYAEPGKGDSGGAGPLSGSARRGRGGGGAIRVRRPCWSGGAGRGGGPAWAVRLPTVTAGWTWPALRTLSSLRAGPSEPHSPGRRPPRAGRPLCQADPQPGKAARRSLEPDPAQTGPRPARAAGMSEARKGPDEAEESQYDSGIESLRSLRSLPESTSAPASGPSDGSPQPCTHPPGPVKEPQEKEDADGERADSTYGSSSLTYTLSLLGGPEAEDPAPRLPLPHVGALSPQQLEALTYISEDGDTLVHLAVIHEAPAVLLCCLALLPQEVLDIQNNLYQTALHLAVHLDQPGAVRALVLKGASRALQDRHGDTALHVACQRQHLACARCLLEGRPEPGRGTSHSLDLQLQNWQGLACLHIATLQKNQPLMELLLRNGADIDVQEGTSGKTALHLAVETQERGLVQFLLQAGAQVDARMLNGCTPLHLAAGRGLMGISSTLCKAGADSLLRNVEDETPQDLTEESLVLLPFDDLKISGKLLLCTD
UniProt Q9NPE2: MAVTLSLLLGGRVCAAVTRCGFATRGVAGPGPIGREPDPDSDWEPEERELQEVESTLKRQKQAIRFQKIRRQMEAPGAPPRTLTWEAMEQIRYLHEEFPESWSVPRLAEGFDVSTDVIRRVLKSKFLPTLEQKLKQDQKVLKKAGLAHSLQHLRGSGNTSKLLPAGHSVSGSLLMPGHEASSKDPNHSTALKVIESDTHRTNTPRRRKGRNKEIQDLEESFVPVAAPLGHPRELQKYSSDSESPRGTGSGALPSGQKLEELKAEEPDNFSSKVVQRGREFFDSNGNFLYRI
UniProt Q86X76: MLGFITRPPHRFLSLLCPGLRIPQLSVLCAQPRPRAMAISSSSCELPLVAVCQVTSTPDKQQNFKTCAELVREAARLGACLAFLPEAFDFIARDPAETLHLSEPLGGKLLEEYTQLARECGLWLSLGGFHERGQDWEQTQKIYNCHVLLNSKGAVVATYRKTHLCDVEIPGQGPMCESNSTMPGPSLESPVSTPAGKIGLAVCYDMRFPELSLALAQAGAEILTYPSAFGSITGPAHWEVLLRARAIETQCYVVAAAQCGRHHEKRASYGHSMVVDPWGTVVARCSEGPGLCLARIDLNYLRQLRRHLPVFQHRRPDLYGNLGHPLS
UniProt O75414: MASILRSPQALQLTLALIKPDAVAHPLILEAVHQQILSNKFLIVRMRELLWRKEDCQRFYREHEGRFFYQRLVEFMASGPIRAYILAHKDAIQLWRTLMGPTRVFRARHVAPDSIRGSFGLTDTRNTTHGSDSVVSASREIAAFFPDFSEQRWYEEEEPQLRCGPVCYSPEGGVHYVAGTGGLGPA
UniProt Q7RTP0: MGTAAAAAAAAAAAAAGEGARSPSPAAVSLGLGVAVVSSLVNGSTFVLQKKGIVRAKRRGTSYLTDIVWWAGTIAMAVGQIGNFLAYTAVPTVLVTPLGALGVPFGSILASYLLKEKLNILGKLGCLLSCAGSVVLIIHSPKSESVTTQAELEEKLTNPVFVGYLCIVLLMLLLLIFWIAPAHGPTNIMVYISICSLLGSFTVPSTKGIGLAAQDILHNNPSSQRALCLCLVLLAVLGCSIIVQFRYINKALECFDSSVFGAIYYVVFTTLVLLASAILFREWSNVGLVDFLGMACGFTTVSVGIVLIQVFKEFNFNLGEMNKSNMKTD
UniProt Q9UNZ2: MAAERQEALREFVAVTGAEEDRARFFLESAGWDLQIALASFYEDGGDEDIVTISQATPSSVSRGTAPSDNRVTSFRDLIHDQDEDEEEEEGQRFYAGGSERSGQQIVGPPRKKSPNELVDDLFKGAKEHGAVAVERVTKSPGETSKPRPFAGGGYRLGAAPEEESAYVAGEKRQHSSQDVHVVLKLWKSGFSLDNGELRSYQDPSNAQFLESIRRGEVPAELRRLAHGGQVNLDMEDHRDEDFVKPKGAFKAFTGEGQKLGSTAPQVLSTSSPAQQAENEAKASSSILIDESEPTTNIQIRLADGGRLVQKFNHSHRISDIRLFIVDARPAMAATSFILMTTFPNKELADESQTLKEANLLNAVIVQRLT
UniProt Q13287: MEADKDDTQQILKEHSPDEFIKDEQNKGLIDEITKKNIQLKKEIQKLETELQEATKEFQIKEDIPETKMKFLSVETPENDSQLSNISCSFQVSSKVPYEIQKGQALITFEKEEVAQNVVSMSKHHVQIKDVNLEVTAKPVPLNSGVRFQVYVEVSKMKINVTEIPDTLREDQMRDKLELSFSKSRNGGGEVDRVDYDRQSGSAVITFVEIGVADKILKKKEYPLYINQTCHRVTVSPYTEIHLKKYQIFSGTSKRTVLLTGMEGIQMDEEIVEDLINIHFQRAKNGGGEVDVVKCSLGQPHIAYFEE

Legend:
Assay in all cases: log2 fold change, soluble protein after heating vs DMSO (PISA); higher = thermal stabilisation; K562 cells, 10 uM, 30 min; active = over 0.2 and 3.5 SD of the protein, either way, in both replicates (recomputed)
saracatinib = compound: CN1CCN(CCOc2cc(OC3CCOCC3)c3c(Nc4c(Cl)ccc5c4OCO5)ncnc3c2)CC1 [saracatinib]
Procedure, shortened: (§1)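 K562 cells at 2×10^6 cells/mL were given 10 μM compound for 30 min. Aliquots then went through 3 min of heating across 48°C-58°C, were pooled, and were extracted in PBS with 0.5% NP-40 at 4°C, and the supernatant after 21,000xg for 90 min was quantified by TMTpro 16plex LC-MS/MS with channel sums equalised. Thermal stability relative to control samples, from duplicates, is given as log2 fold change.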

sotrastaurin = compound: CN1CCN(c2nc(C3=C(c4c[nH]c5ccccc45)C(=O)NC3=O)c3ccccc3n2)CC1 [sotrastaurin]
Procedure, shortened: as §1

alvocidib = compound: CN1CC[C@H](c2c(O)cc(O)c3c(=O)cc(-c4ccccc4Cl)oc23)[C@H](O)C1 [alvocidib]
Procedure, shortened: as §1

Tubastatin A = compound: CN1CCc2c(c3ccccc3n2Cc2ccc(C(=O)NO)cc2)C1 [Tubastatin A]
Procedure, shortened: as §1

[1] = compound: CNC(=O)C1=CC=CC=C1NC2=NC(=NC=C2Cl)NC3=C(C=C(C=C3)N4CCOCC4)OC
Procedure, shortened: as §1

defactinib = compound: CNC(=O)c1ccc(Nc2ncc(C(F)(F)F)c(NCc3nccnc3N(C)S(C)(=O)=O)n2)cc1 [defactinib]
Procedure, shortened: as §1

rucaparib = compound: CNCc1ccc(-c2[nH]c3cc(F)cc4c3c2CCNC4=O)cc1 [rucaparib]
Procedure, shortened: as §1

[2] = compound: CNc1nc(-c2ccc3c(N)n[nH]c3c2)cc(N2C[C@@H](C(=O)NC3CCCCC3)CC[C@H]2C)n1
Procedure, shortened: as §1

encorafenib = compound: COC(=O)N[C@@H](C)CNc1nccc(-c2cn(C(C)C)nc2-c2cc(Cl)cc(NS(C)(=O)=O)c2F)n1 [encorafenib]
Procedure, shortened: as §1

[3] = compound: COC(=O)[C@H](CCSC)NC(=O)C1=C(C=C(C=C1)NC[C@H](CS)N)C2=CC=CC=C2
Procedure, shortened: as §1

Measured: log2 fold change

NFKBIB (UniProt Q15653)
inactive: saracatinib 0.019 | sotrastaurin -0.075 | alvocidib -0.006 | Tubastatin A 0.002 | [1] 0.225 | defactinib -0.044 | rucaparib -0.062 | [2] 0.014 | encorafenib 0.039 | [3] -0.048

NIT2 (UniProt Q9NQR4)
inactive: saracatinib 0.003 | sotrastaurin 0.069 | alvocidib -0.026 | Tubastatin A 0.005 | [1] 0 | defactinib -0.018 | rucaparib -0.032 | [2] -0.007 | encorafenib -0.039 | [3] -0.003

NOMO2 (UniProt Q5JPE7)
inactive: saracatinib -0.003 | sotrastaurin -0.01 | alvocidib -0.004 | Tubastatin A 0.019 | [1] 0.014 | defactinib -0.009 | rucaparib 0.027 | [2] 0.011 | encorafenib 0.045 | [3] -0.035

NLRP2 (UniProt Q9NX02)
inactive: saracatinib -0.025 | sotrastaurin -0.117 | alvocidib -0.002 | Tubastatin A 0.002 | [1] -0.015 | defactinib -0.002 | rucaparib 0.215 | [2] 0.03 | encorafenib 0.088 | [3] -0.102

NQO2 (UniProt P16083)
inactive: saracatinib 0.031 | sotrastaurin 0.009 | alvocidib -0.015 | Tubastatin A -0.02 | [1] -0.04 | defactinib -0.006 | rucaparib -0.005 | [2] -0.006 | encorafenib -0.014 | [3] 0.045

NRBP1 (UniProt Q9UHY1)
inactive: saracatinib 0.092 | sotrastaurin -0.038 | alvocidib -0.062 | Tubastatin A 0.013 | [1] 0.026 | defactinib -0.064 | rucaparib -0.003 | [2] -0.039 | encorafenib 0.005 | [3] -0.023

NPL (UniProt Q9BXD5)
inactive: saracatinib 0.031 | sotrastaurin 0.058 | alvocidib -0.055 | Tubastatin A 0.116 | [1] -0.061 | defactinib 0.023 | rucaparib -0.051 | [2] -0.038 | encorafenib 0.063 | [3] 0.103

NIBAN2 (UniProt Q96TA1)
inactive: saracatinib 0.002 | sotrastaurin 0.035 | alvocidib -0.009 | Tubastatin A 0.013 | [1] -0.011 | defactinib -0.07 | rucaparib -0.025 | [2] -0.049 | encorafenib 0.004 | [3] 0.016

NELFE isoform 3 (UniProt P18615)
inactive: saracatinib 0.008 | sotrastaurin -0.045 | alvocidib 0.002 | Tubastatin A 0.092 | [1] -0.005 | defactinib -0.047 | rucaparib -0.01 | [2] -0.007 | encorafenib 0.031 | [3] 0.007

NME2 isoform 2 (UniProt P22392)
inactive: saracatinib 0.003 | sotrastaurin 0.044 | alvocidib -0.009 | Tubastatin A -0.009 | [1] -0.05 | defactinib 0.001 | rucaparib -0.019 | [2] -0.043 | encorafenib -0.017 | [3] 0.027

NRBF2 (UniProt Q96F24)
inactive: saracatinib -0.022 | sotrastaurin -0.013 | alvocidib -0.036 | Tubastatin A -0.054 | [1] 0.025 | defactinib -0.027 | rucaparib -0.02 | [2] -0.049 | encorafenib 0.033 | [3] 0.062

NIFK (UniProt Q9BYG3)
inactive: saracatinib -0.089 | sotrastaurin 0.057 | alvocidib 0.276 | Tubastatin A 0.102 | [1] 0.134 | defactinib 0.166 | rucaparib 0.245 | [2] 0.091 | encorafenib 0.114 | [3] -0.289

NF2 (UniProt P35240)
inactive: saracatinib -0.04 | sotrastaurin 0.025 | alvocidib -0.077 | Tubastatin A 0.024 | [1] -0.01 | defactinib -0.13 | rucaparib 0.046 | [2] 0.019 | encorafenib 0.013 | [3] 0.012

NSL1 (UniProt Q96IY1)
inactive: saracatinib 0 | sotrastaurin -0.03 | alvocidib -0.112 | Tubastatin A 0.049 | [1] -0.109 | defactinib -0.107 | rucaparib 0.038 | [2] -0.085 | encorafenib -0.102 | [3] -0.058

NPC2 (UniProt P61916)
inactive: saracatinib 0.065 | sotrastaurin 0.01 | alvocidib -0.007 | Tubastatin A -0.091 | [1] 0.139 | defactinib 0.044 | rucaparib -0.163 | [2] 0.004 | encorafenib 0 | [3] 0.102

NLN (UniProt Q9BYT8)
inactive: saracatinib 0.006 | sotrastaurin 0.026 | alvocidib -0.028 | Tubastatin A 0.06 | [1] -0.059 | defactinib -0.013 | rucaparib -0.023 | [2] -0.012 | encorafenib -0.026 | [3] 0.052

NIF3L1 (UniProt Q9GZT8)
inactive: saracatinib 0.027 | sotrastaurin 0.117 | alvocidib 0.005 | Tubastatin A -0.025 | [1] -0.037 | defactinib -0.009 | rucaparib 0.052 | [2] -0.049 | encorafenib -0.074 | [3] 0.008

NFS1 (UniProt Q9Y697)
inactive: saracatinib -0.004 | sotrastaurin 0 | alvocidib -0.059 | Tubastatin A -0.002 | [1] -0.008 | defactinib -0.019 | rucaparib -0.032 | [2] 0.008 | encorafenib -0.008 | [3] -0.011

NFKBIE (UniProt O00221)
inactive: saracatinib 0 | sotrastaurin 0.161 | alvocidib -0.025 | Tubastatin A -0.025 | [1] -0.005 | defactinib -0.224 | rucaparib 0.046 | [2] -0.072 | encorafenib 0.029 | [3] -0.023

NSF (UniProt P46459)
inactive: saracatinib -0.055 | sotrastaurin -0.031 | alvocidib -0.058 | Tubastatin A 0.011 | [1] -0.008 | defactinib -0.038 | rucaparib 0.014 | [2] 0.042 | encorafenib 0.031 | [3] -0.032

NGRN (UniProt Q9NPE2)
inactive: saracatinib -0.027 | sotrastaurin 0.041 | alvocidib 0.136 | Tubastatin A 0.029 | [1] 0.077 | defactinib -0.031 | rucaparib 0.114 | [2] 0.092 | encorafenib -0.035 | [3] 0.028

NIT1 (UniProt Q86X76)
inactive: saracatinib 0.044 | sotrastaurin -0.001 | alvocidib -0.017 | Tubastatin A 0.024 | [1] -0.056 | defactinib -0.023 | rucaparib 0.029 | [2] -0.052 | encorafenib -0.032 | [3] 0.034

NFIA isoform 4 (UniProt Q12857)
inactive: saracatinib -0.012 | sotrastaurin 0.003 | alvocidib -0.002 | Tubastatin A -0.076 | [1] 0.084 | defactinib 0.025 | rucaparib -0.004 | [2] -0.041 | encorafenib 0.015 | [3] -0.005

NFYA (UniProt P23511)
inactive: saracatinib -0.096 | sotrastaurin 0.152 | alvocidib -0.046 | Tubastatin A -0.006 | [1] 0.007 | defactinib -0.025 | rucaparib 0.131 | [2] 0.029 | encorafenib -0.024 | [3] 0.043

NME6 (UniProt O75414)
inactive: saracatinib 0.02 | sotrastaurin -0.041 | alvocidib 0.037 | Tubastatin A 0.002 | [1] -0.028 | defactinib -0.047 | rucaparib -0.022 | [2] -0.022 | encorafenib -0.027 | [3] -0.058

NIPA1 (UniProt Q7RTP0)
inactive: saracatinib 0.156 | sotrastaurin -0.053 | alvocidib 0.1 | Tubastatin A -0.029 | [1] 0 | defactinib 0.059 | rucaparib -0.045 | [2] -0.012 | encorafenib -0.092 | [3] -0.068

NSFL1C isoform 5 (UniProt Q9UNZ2)
inactive: saracatinib 0.002 | sotrastaurin -0.066 | alvocidib -0.045 | Tubastatin A 0.006 | [1] 0.025 | defactinib -0.045 | rucaparib -0.07 | [2] -0.018 | encorafenib -0.012 | [3] -0.023

NMI (UniProt Q13287)
inactive: saracatinib -0.013 | sotrastaurin 0.014 | alvocidib 0.002 | Tubastatin A -0.035 | [1] -0.038 | defactinib 0.007 | rucaparib 0 | [2] -0.029 | encorafenib -0.005 | [3] 0.011

Taken from the entries so far (two entries):
NME6 (UniProt O75414)
inactive: saracatinib 0.02 | sotrastaurin -0.041 | alvocidib 0.037 | Tubastatin A 0.002 | [1] -0.028 | defactinib -0.047 | rucaparib -0.022 | [2] -0.022 | encorafenib -0.027 | [3] -0.058

NIPA1 (UniProt Q7RTP0)
inactive: saracatinib 0.156 | sotrastaurin -0.053 | alvocidib 0.1 | Tubastatin A -0.029 | [1] 0 | defactinib 0.059 | rucaparib -0.045 | [2] -0.012 | encorafenib -0.092 | [3] -0.068

(list continues)

NES (UniProt P48681)
inactive: saracatinib -0.055 | sotrastaurin 0 | alvocidib 0.059 | Tubastatin A 0.034 | [1] 0.005 | defactinib 0.281 | rucaparib 0.194 | [2] -0.05 | encorafenib 0.09 | [3] -0.061
